# PubChem BioAssay AID651664 (NMMLSC, 2012)
# Screen size: about 1,800 compounds; fewer than 10 were called active.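 How the source made its calls: active means inhibition of granule release above a set limit; inactive means the rest.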 The list shows a part of the results.
# Experiment: LAMP-1 surface externalization blockers in TALL-104 cells – cell-based, flow cytometry, validation set (AID 651664)
# Settings: TALL-104 LAMP-1 externalization, at 15.2 µM, active compounds read high, stimulated with thapsigargin and PMA
row,SMILES,inhibition
1,Cc1cccc(CC(Cc2nc3ccccc3[nH]2)c2nc3ccccc3[nH]2)c1 (stereo not given),active: 94.4%
2,CCc1nc(NCCCN2CCOCC2)c2oc3ccccc3c2n1,inactive: -0.8%
3,COc1ccc(NC(=O)c2ccc(-n3nc(C)cc3C)cc2)cc1OC,inactive: -1.2%
4,O=C(CN1CCN(c2ncccn2)CC1)NCc1ccccc1,inactive: 1.3%
5,CCOc1ccc(-c2nnn(CC(=O)NCc3ccc4c(c3)OCO4)n2)cc1,inactive: 4%
6,O=C(O)C1CC(=O)n2c(nc3ccccc32)S1 (stereo not given),inactive: 2.4%
7,Cn1c(N)c(C(=O)COC(=O)c2ccco2)c(=O)n(C)c1=O,inactive: 0.8%
8,O=C(COC(=O)c1ccco1)Nc1ccc2c(c1)OCCO2,inactive: 2.2%
9,COc1ccc2c(Cl)c(C(=O)NCCCn3ccnc3)sc2c1Cl,inactive: 0.4%
10,Cc1ccc(-c2nc(-c3ccccc3)no2)cc1,inactive: 3.2%
11,O=C(CCN1CCCC1)Nc1cccc(Br)c1,inactive: -0.1%
12,C[N+]1(CCOc2ccc([N+](=O)[O-])cc2)CCOCC1,inactive: -1.2%
13,Cc1ccc(O)c(NC(=O)CCC2CCCCC2)c1,inactive: -2.6%
14,CC1Cc2ccccc2N1S(=O)(=O)c1cccc(C(=O)NCCCO)c1 (stereo not given),inactive: -1.2%
15,O=C(CN1C(=O)C2C3C=CC(C3)C2C1=O)Nc1nc2ccccc2[nH]1 (stereo not given),inactive: 4.5%
16,CCc1nc(-c2ccc(C)nc2OC)no1,inactive: 0.4%
17,COc1cccc(CNC(=O)C2CCN(Cc3cnn(-c4ccccc4)c3-n3cccc3)CC2)c1,inactive: -1.9%
18,CCOC(=O)N1CCN(c2ncnc3c2cnn3-c2ccc(OC)cc2)CC1,inactive: -3.2%
19,Clc1ccc(Sc2cnc3ccccc3n2)cc1,inactive: 11.7%
20,O=[N+]([O-])c1ccc(Cl)cc1Sc1cccc2cccnc12,inactive: 3.9%
21,COC(=O)[C@H](Cc1ccccc1)NC(=O)N1CC(C)OC(C)C1 (stereo not given in full),inactive: -1.3%
22,O=[N+]([O-])c1cc(S(=O)(=O)Nc2cccc(C(F)(F)F)c2)ccc1-n1nnc2ccccc21,inactive: 2.7%
23,N#CC(c1ccc(F)cc1)c1ccc(C(=O)c2ccccc2)cc1 (stereo not given),inactive: -0.3%
24,Cc1cc(C(=O)CSc2nnc(-c3ccc(F)cc3)o2)c(C)n1CC1COc2ccccc2O1 (stereo not given),inactive: -0.6%
25,CCN(CC)C(=O)C1CCCN(c2ccc([N+](=O)[O-])cc2/C=N/NC(=O)c2cccc(O)c2)C1 (stereo not given),inactive: -3.4%

row,SMILES,inhibition
1,Cc1cc(C)c(NC(=O)CN2CCOCCOCCOCCOCC2)c(C)c1,inactive: 2.5%
2,COc1ccc(-c2nc(C#N)c(NCCc3ccccc3)o2)cc1OC,inactive: 4.3%
3,Cc1ccc(Nc2nc(C)cc(C)c2C(N)=O)cc1,inactive: -1.3%
4,COC(=O)c1ccc(NC(=S)Nc2ccc3ccccc3c2)cc1,inactive: -0.9%
5,OCCSc1ncnc2c1oc1ccccc12,inactive: -1.3%
6,CCc1ccc2c(c1)c(N=NC1=NC(=O)CS1)c(O)n2CC,inactive: -0.4%
7,O=C(Nc1cc(C(F)(F)F)ccc1N1CCOCC1)c1cccnc1Cl,inactive: -2.8%
8,CC(=O)COc1ncn(-c2ccccc2)n1,inactive: 0.2%
9,COc1ccc(/C=N/NC(=O)c2nonc2C)cc1,inactive: -1%
10,CC1(C)Cc2c(sc3ncn4nc(-c5ccco5)nc4c23)CO1,inactive: -1.3%
11,COC(=O)CCCCC1SCC(NC(=O)OC)C1NC(=O)OC (stereo not given),inactive: 3%
12,CCCOc1cccc(C(=O)N(Cc2ccco2)C2CCS(=O)(=O)C2)c1 (stereo not given),inactive: 1.4%
13,Cc1ccc2nsnc2c1NC(=O)c1ccc(-c2cc(Cl)ccc2Cl)o1,inactive: -2.2%
14,COc1ccc(N(C(=O)c2ccc(Cl)cc2)C2=CC3CCC(C2)N3C)cc1 (stereo not given),inactive: 0.4%
15,COc1ccc(CCC(=O)Nc2nc3ccccc3[nH]2)cc1OC,inactive: -1.5%
16,CC1CCCCC1NC(=O)C(=O)NCC1CCCO1 (stereo not given),inactive: 1.7%
17,Cc1cc2ccccc2nc1SCC(=O)N1c2ccccc2CC1C (stereo not given),inactive: -0.9%
18,O=C1c2ccccc2NC(c2ccc(Cl)cc2Cl)N1O (stereo not given),inactive: -2.2%
19,O=c1cc(N2CCc3ccccc3C2)[nH]c(=O)n1C1CCCCC1,inactive: 8.4%
20,COc1ccc(Oc2nccc(-c3ccccc3)c2C#N)cc1,inactive: 0.4%
21,COc1ccc2c(c1)-c1nc(NC(=O)c3cccs3)sc1CC2,inactive: -4.8%
22,CCN(CC)C(=O)C(=O)N/N=C/c1cccc(Br)c1,inactive: -5.5%
23,CCNc1nc(NCC)nc(OCCOC(=O)COc2ccc(Cl)cc2Cl)n1,inactive: -2.4%
24,O=C(C[n+]1cc2ccccc2c2ccccc21)c1ccccc1,inactive: 0.7%
25,OC(CN1CCN(c2ccccc2)CC1)c1c[nH]c2ccccc12 (stereo not given),inactive: -2.6%

# Three successive records out of the list so far, quoted:
row,SMILES,inhibition
4,O=C(CN1CCN(c2ncccn2)CC1)NCc1ccccc1,inactive: 1.3%
5,CCOc1ccc(-c2nnn(CC(=O)NCc3ccc4c(c3)OCO4)n2)cc1,inactive: 4%
6,O=C(O)C1CC(=O)n2c(nc3ccccc32)S1 (stereo not given),inactive: 2.4%
